PubChem BioAssay AID1259308, NCATS, 2017

Test: 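Knock-downs that increase output of a recombinant reporter protein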 (primary screen)
Cell system: human HEK293 embryonic kidney cells stably expressing firefly luciferase (HEK-CMV-Luc2-Hygro)
Reagents: single siRNA against human genes, 0.8 pmol siRNA per well
Timing: 72 h
Read-out: 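Reporter luminescence and viable-cell signal on separate replicate plates, given as percent of non-targeting control and median/MAD z-scores, plus per-cell luciferase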
Reading the numbers: total luciferase, z-score and total luciferase, % of control: higher = more reporter protein produced
Call rule: 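Active when the median/MAD z-score for overall luciferase is greater than 3; a gene was taken forward for validation with new siRNAs if at least two of its three siRNAs passed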
Meaning of the calls: active = raised luciferase; inactive = no rise
This is an unselected part of about 59,000 reagents tested. About 1,510 of them (2.6%) were called active. 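Calls use total luciferase alone and ignore viability, so some active siRNAs may act by altering cell number.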 Reagents against one gene are numbered here. Not all columns of the deposit are shown.

What did the screen give for WFDC8 #1?
total luciferase, z-score: 4.42; total luciferase, % of control: 170; outcome: active

Which result is listed for WFDC8 #2?
total luciferase, z-score: -0.654; total luciferase, % of control: 68.9; outcome: inactive

What did the screen give for WFDC8 #3?
total luciferase, z-score: -0.469; total luciferase, % of control: 72.5; outcome: inactive

What is on record for KCNMB1 #1?
total luciferase, z-score: -0.177; total luciferase, % of control: 78.4; outcome: inactive

With KCNMB1 #2, what was measured?
total luciferase, z-score: -2.64; total luciferase, % of control: 29.3; outcome: inactive

For KCNMB1 #3, what was measured?
total luciferase, z-score: 0.709; total luciferase, % of control: 96; outcome: inactive

Reprinted from the listing for reference:
KCNMB1 #2 — total luciferase, z-score = -2.64; total luciferase, % of control = 29.3; outcome = inactive
KCNMB1 #3 — total luciferase, z-score = 0.709; total luciferase, % of control = 96; outcome = inactive

The list goes on:
For ZDHHC23 #1, what does the deposit list?
total luciferase, z-score: -0.453; total luciferase, % of control: 72.9; outcome: inactive

With ZDHHC23 #2, what does the deposit list?
total luciferase, z-score: -0.322; total luciferase, % of control: 75.5; outcome: inactive

With ZDHHC23 #3, what does the deposit list?
total luciferase, z-score: -0.782; total luciferase, % of control: 66.3; outcome: inactive

For CACUL1 #1, how do the results read?
total luciferase, z-score: 0.372; total luciferase, % of control: 89.3; outcome: inactive

With CACUL1 #2, what was measured?
total luciferase, z-score: -1.7; total luciferase, % of control: 48.1; outcome: inactive

With CACUL1 #3, how do the results read?
total luciferase, z-score: -0.76; total luciferase, % of control: 66.8; outcome: inactive
